{
  "source": "patent US11788147B2",
  "about": "“Markers of triple-negative breast cancer and uses thereof” (Vanderbilt University, priority 2011, dated 2023)",
  "key": {"[1]": {"test_system": "SUM185PE, CAL-148 and CAL-51 xenograft tumors", "assay": "Xenograft tumor studies (Example 1), LAR and low-AR mesenchymal-like", "assay_type": "in vivo, mice", "conditions": "bicalutamide per oral 100 mg/kg/d, approximately 3 weeks"}, "[2]": {"test_system": "p-AKT, p-S6 and AR in AR-expressing TNBC cell lines", "assay": "Immunoblot analysis of the PI3K/mTOR pathway and AR", "assay_type": "cell-based, human", "description": "Immunoblot analysis was performed on cell lystates from untreated cells or cells treated alone or in combination with CDX, GDC-0941 and GDC-0980 to evaluate attenuation of the PI3K/mTOR pathway. […] Cells were trypsinized, lysed and relative protein expression was determined by Western blot as previously described (JCI reference) with the following antibodies; the AR polyclonal antibody, SC-N20 (Santa Cruz Biotechnology), pS[…]/236 (Cell Signaling #4856), S6 (Cell Signaling #2317), pAKT-5473 (Cell Signaling #9271), AKT (Cell Signaling #9272), PARP (Cell Signaling #9542) and GAPDH (Millipore)."}, "[3]": {"test_system": "activated caspase 3/7 in AR-positive TNBC cell lines", "assay": "Caspase 3/7 activity (Caspase-Glo)", "assay_type": "cell-based, human", "conditions": "48 h; ADR 3 μM, bicalutamide 50 μM, GDC-0941 3 μM, GDC-0980 1 μM", "description": "Cell lines were seeded in triplicate in 96-well plates. Media was removed and replaced with media containing vehicle (control) or indicated drugs. After 48 hrs, apoptosis was determined by measuring luciferase from activated caspase 3/7 upon addition of Caspase-Glo reagent (Promega, Madison, WI). Relative levels of caspase activity were normalized to viable cell number determined by metabolic reduction of Alamar blue."}, "[4]": {"test_system": "CAL-148, MFM-223 and MDA-MB-453 cells", "assay": "3-D forced suspension viability assay", "assay_type": "cell-based, human", "conditions": "25 μM bicalutamide added to GDC-0941 or GDC-0980", "description": "CAL-148, MFM-223 and MDA-MB-453 cells were plated (10,000 cells/well) in quadruplicate into 96-well plates coated with 0.9% agarose diluted in corresponding media. Following 5 d of growth, cells were then treated with increasing half-log concentrations of GDC-0941 (10-3000 nM), GDC0980 (1 nM −300 nM), BKM120 (10 nM-3000 nM) and NVP-BEZ235 (1 nM-300 nM) alone or in combination with 25 μM bicalutamide (CDX) for an additional 72 h, upon which cells were imaged and viability determined by Alamar blue."}, "[5]": {"test_system": "CAL-148 and MDA-MB-453 xenograft tumors", "assay": "Xenograft tumor studies (Example 2)", "assay_type": "in vivo, mice", "conditions": "single agent alone; bicalutamide 100 mg/kg/d, GDC0980 7.5 mg/kg/d, NVP-BEZ235 50 mg/kg/d p.o.", "description": "Five-week-old female athymic nude-Foxnlnu mice (Harlan Sprague-Dawley) were injected (s.c.) with either ˜4×10^6 (CAL-148) or ˜10×10^6 (MDA-MB-453) cells suspended in media (200 μL) into each flank using a 22-gauge needle. Once tumors reached a volume of 25-50 mm^3, mice were randomly allocated to treatment or vehicle arms. Treatments included bicalutamide p.o. (100 mg/kg/d), GDC0980 p.o. (7.5 mg/kg/d) in 5% DMSO, 0.5% carboxymethyl cellulose (MCT) or NVP-BEZ235 p.o. (50 mg/kg/d) in 0.5% MCT or the combination of bicalutamide and either GDC-0980 or NVP-BEZ235 according to the above concentrations. Tumor diameters were serially measured at the indicated times with digital calipers and tumor volumes were calculated as width^2×length/2."}, "Phospho-AKT (S473)": {"test_system": "Phospho-AKT (S473)", "assay": "Phospho-AKT in bicalutamide-resistant xenograft tumor cells", "assay_type": "in vivo, mice", "conditions": "bicalutamide-resistant versus untreated xenograft tumor cells"}},
  "note": "At least one structure is not confirmed: it was looked up by name or label, or the drawing left a doubt.",
  "data": [
    {"smiles": "CC(O)(CS(=O)(=O)c1ccc(F)cc1)C(=O)Nc1ccc(C#N)c(C(F)(F)F)c1", "note": "(stereo not drawn) [bicalutamide]", "values": [
      {"measurement": "xenograft tumor sensitivity", "setting": "[1]", "result": "significant sensitivity"},
      {"measurement": "effect on the PI3K/mTOR pathway or AR levels", "setting": "[2]", "result": "minimal effect"},
      {"measurement": "caspase 3/7 activation", "setting": "[3]", "result": "did not induce caspase activation"},
      {"measurement": "viability in 3-D, combination with PI3K/mTOR inhibition", "setting": "[4]", "result": "either additive or synergistic"},
      {"measurement": "tumor growth", "setting": "[5]", "result": "significantly decreased tumor growth"},
      {"measurement": "Phospho-AKT (S473) levels", "setting": "Phospho-AKT (S473)", "result": "elevated"}
    ]}
  ]
}
